Reference: patent publication US9512315B2, “Quenching dye for labeling biomolecules and method for preparing the same” (DKC CORPORATION, priority 2013, dated 2016)
Several values for one entry are separate records, joined by “and”; a condition that tells them apart may be missing. Identical values can stand only once. For some assays here: At least one compound was matched to its structure with a doubt left. Some of these results come from one statement about several compounds together.

What was measured:
[1] = Test Example 1: comparison of absorption spectra; assay type: physicochemical; conditions: for range of absorption spectra: FIG. 1, distilled water (BHQ-3 dissolved in DMSO, then diluted with water); for range of absorption spectra, normalized to the maximum absorption intensity: FIG. 2
Description: (§1) LC/MS was measured by ESI (electrospray ionization) using the LC/MSD SL of Agilent Technologies. The absorption spectrum and maximum absorption wavelength (λabs) of the synthesized dye were measured with Lambda 45 of PerkinElmer. The emission spectrum and maximum emission wavelength (λfl) were measured with LS-55 of PerkinElmer.
In order to investigate the absorption intensity and spectrum of the anthraquinone compound according to the present disclosure, the absorption spectra of the compounds of Example 1 and Example 6 and commercially available BHQ-3 as a comparative example were compared. Stock solutions were prepared by dissolving the compounds of Example 1 and Example 6 according to the present disclosure in distilled water. BHQ-3 was dissolved in a small amount of DMSO according to the manufacturer's instructions and diluted with distilled water.

[2] = Maximum absorption wavelength (λabs) of the synthesized dye in PBS; assay type: physicochemical
Description: as §1

SMILES	range of absorption spectra [1]	range of absorption spectra, normalized to the maximum absorption intensity [1]	λabs (maximum absorption wavelength) [2]
CN(CCCCCC(=O)O)c1ccc(/N=N/c2ccc(Nc3cc(S(=O)(=O)O)c(N)c4c3C(=O)c3ccccc3C4=O)c(S(=O)(=O)O)c2)cc1 [Example 1]	300-800 nm	300-800 nm	–
CN(CCCCCC(=O)NCCN1C(=O)C=CC1=O)c1ccc(/N=N/c2ccc(Nc3cc(S(=O)(=O)O)c(N)c4c3C(=O)c3ccccc3C4=O)c(S(=O)(=O)O)c2)cc1 [Example 4]	–	–	481 nm and 626 nm
CN(CCCCCCCC(=O)ON1C(=O)CCC1=O)c1ccc(/N=N/c2ccc(Nc3cc(S(=O)(=O)O)c(N)c4c3C(=O)c3ccccc3C4=O)c(S(=O)(=O)O)c2)cc1 [Example 6]	300-800 nm	300-800 nm	–
